# Test results as given in PubChem BioAssay AID720504 (National Center for Advancing Translational Sciences (NCATS), 2013).
# Sequences of proteins named here, by UniProt entry; tags and fusion partners are left off.
# UniProt P53350, whole entry, looked up: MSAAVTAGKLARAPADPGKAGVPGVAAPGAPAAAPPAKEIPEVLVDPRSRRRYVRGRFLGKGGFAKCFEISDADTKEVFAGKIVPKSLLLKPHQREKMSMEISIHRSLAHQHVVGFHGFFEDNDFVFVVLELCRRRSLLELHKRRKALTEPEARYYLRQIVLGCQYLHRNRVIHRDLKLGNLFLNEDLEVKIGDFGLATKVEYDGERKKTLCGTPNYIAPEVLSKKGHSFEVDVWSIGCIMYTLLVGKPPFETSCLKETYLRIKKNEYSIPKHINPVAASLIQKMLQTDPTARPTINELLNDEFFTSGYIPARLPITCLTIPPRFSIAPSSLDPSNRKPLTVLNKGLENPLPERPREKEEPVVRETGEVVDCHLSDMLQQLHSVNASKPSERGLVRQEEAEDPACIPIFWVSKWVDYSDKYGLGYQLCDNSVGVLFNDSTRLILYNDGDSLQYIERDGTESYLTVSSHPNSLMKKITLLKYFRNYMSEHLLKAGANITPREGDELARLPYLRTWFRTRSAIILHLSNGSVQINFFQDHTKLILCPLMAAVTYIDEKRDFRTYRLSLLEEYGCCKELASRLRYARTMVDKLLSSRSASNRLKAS
# Hit rate of the full screen: of about 360,000 compounds, about 10,000 (2.8%) were called active. This list was built around the results that the source calls inconclusive (neither active nor inactive); the mix of calls is not that of the screen. Calls follow the shape of the dose curve; as a rule, active = well fitted inhibition curve with a large enough effect; inconclusive = small, poorly fitted or top-dose-only effect; inactive = flat fitted curve, though single readings scatter. Potencies beside an inconclusive call are fits to weak or partial responses and may not hold up.
# Target: Serine/threonine-protein kinase PLK1 (Homo sapiens) (UniProt P53350)
# Assay: qHTS for Inhibitors of PLK1-PDB (polo-like kinase 1 - polo-box domain): Primary Screen; also: nearly all actives have a fitted effect of over 65% in size; as to max response, negative = inhibition: series mostly up to about 57 µM
# Conditions: Plk1 PBD binding of FITC phosphopeptide, fluorescence polarization
# % is scaled to controls: 0 for no effect and ±100 for the full control effect; potency is read from the fitted curve at half-maximal effect.
SMILES,Potency,"max response, negative = inhibition"
CCc1cc(SC#N)cc(CC)c1NC(=O)CCl,"inconclusive: 10.6 µM [inhibitor, partial curve]",
Cc1cccc(CS(=O)(=O)c2ncc(Cl)c(C(=O)Nc3nnc(C(C)C)s3)n2)c1,"inconclusive: 29.9 µM [inhibitor, single point]",
CCOc1cc(/C=C(/C#N)c2ccc(F)cc2)ccc1OCc1ccc(C(=O)O)o1,"inconclusive: 23.8 µM [inhibitor, single point]",
CN1CCN(c2ccc(Nc3ccnc4cc(Cl)ccc34)cc2)CC1,,inactive: -9.02%
COc1ccc(NS(=O)(=O)c2ccc3nc(COc4cccc5ccccc45)[nH]c3c2)cc1,"inconclusive: 23.8 µM [inhibitor, partial curve]",
N#Cc1c(N)nc2c3c(sc(=N)c2c1N)NC(=O)CC3c1c(F)cccc1Cl (configuration not stated),,inactive: -18.8%
CCC(=O)c1ccc(N2CCCC2)c(F)c1,"inconclusive: 23.8 µM [inhibitor, single point]",
CC/C(=C\c1oc2cc3ccccc3cc2[n+]1CC)Nc1ccccc1,,inactive: -26.7%
NC(=O)CC(c1ccccc1)c1ccc2c(c1)OCO2 (configuration not stated),,inactive: -7.7%
COc1ccccc1C(=O)NC(=O)CSc1cccc[n+]1[O-],,inactive: -14.1%
COc1ccc(CCCc2nnc(SCc3nc4ccccc4c(=O)[nH]3)n2C)cc1,active: 3.77 µM,
Cc1[nH]c2ccccc2c1C(=O)CSc1nccc(=O)[nH]1,"inconclusive: 29.9 µM [inhibitor, partial curve]",
COc1cccc(NC(=O)CCC2CCN(C(=O)c3cncs3)CC2)c1,,inactive: -3.13%
Brc1ccc(N/N=C(/N=Nc2nn[nH]n2)c2ccccc2)cc1,"inconclusive: 23.8 µM [inhibitor, single point]",
COc1nccnc1NS(=O)(=O)c1ccc(NC(=S)NC(=O)/C=C/c2ccccc2)cc1,active: 29.9 µM,
CC(=O)Nc1cccc(NC(=O)CSc2ccc(-c3ccco3)nn2)c1,"inconclusive: 37.7 µM [inhibitor, single point]",
CCCCn1c(-c2c(Cl)c(C)nn2C)n[nH]c1=S,"inconclusive: 23.8 µM [inhibitor, partial curve]",
Cc1onc(-c2c(F)cccc2Cl)c1C(=O)Nc1ccccc1N1CCOCC1,"inconclusive: 37.7 µM [inhibitor, single point]",
CC(C)n1c(O)c(N=NC(=O)c2ccccc2NS(=O)(=O)c2cccs2)c2ccccc21,active: 16.8 µM,
C=CCC(C)(NCc1ccccc1)c1ccc(C)cc1 (configuration not stated),,inactive: 8.33%
Cc1ccc(-c2cc(C(=O)NCCCN3CCCC3)c3ccccc3n2)cc1C,"inconclusive: 23.8 µM [inhibitor, partial curve]",
COCCN1Cc2cccc(C(=O)Nc3ccccc3OC)c2C1=O,"inconclusive: 26.7 µM [inhibitor, partial curve]",
Cc1[nH]c2ccccc2c1-c1csc(NC(=O)CSCCO)n1,,inactive: -11.3%
CC(C)c1ccc(OCC(=O)NCCO)cc1,active: 26.7 µM,

# An excerpt from above in order of SMILES length, rising.
SMILES,Potency,"max response, negative = inhibition"
CC(C)c1ccc(OCC(=O)NCCO)cc1,active: 26.7 µM,
CCC(=O)c1ccc(N2CCCC2)c(F)c1,"inconclusive: 23.8 µM [inhibitor, single point]",
CCc1cc(SC#N)cc(CC)c1NC(=O)CCl,"inconclusive: 10.6 µM [inhibitor, partial curve]",
C=CCC(C)(NCc1ccccc1)c1ccc(C)cc1 (configuration not stated),,inactive: 8.33%
NC(=O)CC(c1ccccc1)c1ccc2c(c1)OCO2 (configuration not stated),,inactive: -7.7%
CCCCn1c(-c2c(Cl)c(C)nn2C)n[nH]c1=S,"inconclusive: 23.8 µM [inhibitor, partial curve]",
COCCN1Cc2cccc(C(=O)Nc3ccccc3OC)c2C1=O,"inconclusive: 26.7 µM [inhibitor, partial curve]",
COc1ccccc1C(=O)NC(=O)CSc1cccc[n+]1[O-],,inactive: -14.1%
Cc1[nH]c2ccccc2c1C(=O)CSc1nccc(=O)[nH]1,"inconclusive: 29.9 µM [inhibitor, partial curve]",
CN1CCN(c2ccc(Nc3ccnc4cc(Cl)ccc34)cc2)CC1,,inactive: -9.02%
Brc1ccc(N/N=C(/N=Nc2nn[nH]n2)c2ccccc2)cc1,"inconclusive: 23.8 µM [inhibitor, single point]",
COc1cccc(NC(=O)CCC2CCN(C(=O)c3cncs3)CC2)c1,,inactive: -3.13%
CC(=O)Nc1cccc(NC(=O)CSc2ccc(-c3ccco3)nn2)c1,"inconclusive: 37.7 µM [inhibitor, single point]",
Cc1ccc(-c2cc(C(=O)NCCCN3CCCC3)c3ccccc3n2)cc1C,"inconclusive: 23.8 µM [inhibitor, partial curve]",
Cc1onc(-c2c(F)cccc2Cl)c1C(=O)Nc1ccccc1N1CCOCC1,"inconclusive: 37.7 µM [inhibitor, single point]",
COc1ccc(CCCc2nnc(SCc3nc4ccccc4c(=O)[nH]3)n2C)cc1,active: 3.77 µM,
N#Cc1c(N)nc2c3c(sc(=N)c2c1N)NC(=O)CC3c1c(F)cccc1Cl (configuration not stated),,inactive: -18.8%
CCOc1cc(/C=C(/C#N)c2ccc(F)cc2)ccc1OCc1ccc(C(=O)O)o1,"inconclusive: 23.8 µM [inhibitor, single point]",
COc1nccnc1NS(=O)(=O)c1ccc(NC(=S)NC(=O)/C=C/c2ccccc2)cc1,active: 29.9 µM,
CC(C)n1c(O)c(N=NC(=O)c2ccccc2NS(=O)(=O)c2cccs2)c2ccccc21,active: 16.8 µM,

# Next entries

SMILES,Potency,"max response, negative = inhibition"
COc1cc(C(=S)N2CCOCC2)cc(OC)c1OC(=O)c1ccccc1Cl,"inconclusive: 29.9 µM [inhibitor, single point]",
O=C(COC(=O)c1cncc(Br)c1)NCc1ccco1,"inconclusive: 29.9 µM [inhibitor, single point]",
Clc1ccc(-c2ccc(C=Nc3ccc(N4CCOCC4)cc3)o2)cc1,,inactive: 0.811%
O=C(COc1ccc(/C=N/NC(=O)C(=O)N2CCCCCC2)cc1)Nc1ccccc1Cl,,inactive: 2.57%
CCCCc1ccc(NC(=O)c2cnccn2)cc1,,inactive: -0.477%
COc1ccc(-c2cc(NC(C)=O)c3ncc(-c4ccccc4)n3c2)cc1OC,"inconclusive: 26.7 µM [inhibitor, single point]",
Cc1ccc(S(=O)(=O)CC(=O)Nc2nnc(C(C)(C)C)s2)cc1,"inconclusive: 29.9 µM [inhibitor, partial curve]",
CCOC(=O)N1CCC(NC(=O)CCS(=O)(=O)c2ccc3c(c2)CCN3C(=O)CC)CC1,,inactive: 4.39%
Cn1c(=O)c2[nH]c(CN3CCN(Cc4ccccc4)CC3)nc2n(C)c1=O,,inactive: -1.28%
CCOC(=O)N1C(=O)[C@](c2ccc(Cl)cc2)(C(C)C)N1C(=O)OCC,,inconclusive: -33.3% [inhibitor]
COc1ccccc1NC(=O)CCS(=O)(=O)c1ccc2c(c1)oc(=O)n2C,"inconclusive: 29.9 µM [inhibitor, single point]",
CCc1ccc2nc(N(CCN(C)C)C(=O)c3ccc4ncsc4c3)sc2c1,,inactive: -29.6%
COc1ccccc1/C=C1\SC(=S)N(NS(=O)(=O)c2ccccc2)C1=O,"inconclusive: 29.9 µM [inhibitor, single point]",
Cc1cccc(CSc2ccc3nnc(-c4cccs4)n3n2)c1,"inconclusive: 8.44 µM [inhibitor, single point]",
O=C1CCCc2nc(N3CCN(c4ccccc4)CC3)ncc21,active: 29.9 µM,
COc1cc(/C=C2/C(=N)N3C(SC)=NSC3=NC2=O)ccc1OC(=O)c1ccco1,"inconclusive: 29.9 µM [inhibitor, single point]",
CC1CCC/C(=N/Nc2nc3ccccc3s2)C1 (configuration not stated),active: 29.9 µM,
CCOC(=O)Cn1cc(/C=C/[N+](=O)[O-])c2ccccc21,"inconclusive: 18.9 µM [inhibitor, partial curve]",
CNc1nnc(Sc2ncccc2[N+](=O)[O-])s1,active: 15 µM,
COc1ccc(S(=O)(=O)N(C)C)cc1NC(=O)CSc1ncccn1,active: 15 µM,
NC(=S)N/N=C/c1ccc(-c2ccc(SC(F)F)cc2)o1,,inactive: -5.04%
O=C(CCS(=O)(=O)c1ccc(F)cc1)Nc1ccc(N2CCN(Cc3ccccc3)CC2)cc1,"inconclusive: 33.6 µM [inhibitor, single point]",
Cc1ccccc1-n1nnnc1SCc1csc(-c2ccccc2)n1,"inconclusive: 18.9 µM [inhibitor, single point]",
CC(=O)c1ccc(OC(=O)CCc2nc3ccccc3s2)cc1,"inconclusive: 16.8 µM [inhibitor, partial curve]",

SMILES,Potency,"max response, negative = inhibition"
COc1cc2c(cc1OC)CN(C(=O)c1cccs1)CC2,,inconclusive: -33.7% [inhibitor]
Cc1ccc(S(=O)(=O)C=CS(=O)(=O)c2ccc(C)cc2)cc1,active: 2.67 µM,
CCOc1ccc(C2=CSC3=NCCN23)cc1Cl,"inconclusive: 23.8 µM [inhibitor, partial curve]",
O=C(NCCc1ccc(Cl)cc1)C1CCN(S(=O)(=O)c2ccc(-n3cnnn3)cc2)CC1,"inconclusive: 23.8 µM [inhibitor, partial curve]",
O=C(Nc1c(-c2ccccc2)[nH][nH]c1=O)c1ccc2c(c1)OCO2,"inconclusive: 18.9 µM [inhibitor, partial curve]",
Cc1ccccc1C(=O)NCC(=O)NNC(=S)NC(=O)c1ccccc1,"inconclusive: 29.9 µM [inhibitor, single point]",
O=C(Cc1ccc(S(=O)(=O)N2CCOCC2)s1)N1CCN(S(=O)(=O)c2ccc(Cl)cc2)CC1,,inactive: -6.44%
COc1ccc(CNC(=O)CCS(=O)(=O)c2ccc3c(c2)CCN3C(C)=O)cc1,"inconclusive: 26.7 µM [inhibitor, single point]",
CC(C)C(NC(=O)c1ccc2c(c1)OCO2)C(=O)N/N=C/c1cccs1 (configuration not stated),"inconclusive: 18.9 µM [inhibitor, partial curve]",
O=C(CCc1ccc(S(=O)(=O)NC2CCCCC2)cc1)NCc1ccccn1,,inactive: 1.77%
CC(=O)c1cc(CC=C(C)C)c(O)cc1O,active: 29.9 µM,
CC1Sc2ccc(S(=O)(=O)CCC(=O)NCc3ccccc3)cc2NC1=O (configuration not stated),,inconclusive: -31.9% [inhibitor]
COc1ccc(NC(=S)Nc2ncccc2C)c(OC)c1,"inconclusive: 33.6 µM [inhibitor, partial curve]",
CC1CCN(C(=O)CCc2ccc(Oc3cc([N+](=O)[O-])cc([N+](=O)[O-])c3)cc2)CC1,,inactive: -13.6%
O=C(O)c1sccc1SCc1ccc(Cl)cc1Cl,,inconclusive: -30.1% [inhibitor]
Cc1ccc(NC(=S)C2=C(O)c3ccccc3N(C)S2(=O)=O)cc1,"inconclusive: 26.7 µM [inhibitor, single point]",
CCOC(=O)c1cc2c(ccn2C)n1CC(=O)N(Cc1ccccc1)c1ccc(F)cc1,,inactive: -7.51%
CC(C)c1ccc(Nc2nnc(SCC(=O)Nc3ncc(S(=O)(=O)c4ccc([N+](=O)[O-])cc4)s3)s2)cc1,active: 42.3 µM,
COc1ccc(CCCNC(=O)C2CCC(=O)N(CCCN3CCCC3=O)C2)cc1 (configuration not stated),"inconclusive: 29.9 µM [inhibitor, single point]",
O=C(O)c1ccc(NS(=O)(=O)c2ccc3c(c2)C2C=CCC2C(c2ccccc2F)N3)cc1 (configuration not stated),"inconclusive: 21.2 µM [inhibitor, single point]",
COc1ccc(C[C@H]2CN3C(=NC[C@@H]3Cc3ccccc3)N2CCNC(=O)c2ccc(C)c(Br)c2)cc1,"inconclusive: 37.7 µM [inhibitor, single point]",
COc1ccc2oc(C(=O)OCC(=O)N3CCN(S(=O)(=O)c4ccccc4)CC3)c(C)c2c1,,inactive: -2.64%
COc1cc(C(O)P(=O)(OCC(C)C)OCC(C)C)cc(OC)c1OC (configuration not stated),active: 11.9 µM,
O=C(N=Nc1c(O)[nH]c2ccccc12)c1cccc(S(=O)(=O)Nc2ccccc2Cl)c1,active: 29.9 µM,

# In a second layout: 2 of the compounds above.
SMILES	Potency	max response, negative = inhibition
Cc1ccccc1C(=O)NCC(=O)NNC(=S)NC(=O)c1ccccc1	inconclusive: 29.9 µM [inhibitor, single point]	
O=C(O)c1ccc(NS(=O)(=O)c2ccc3c(c2)C2C=CCC2C(c2ccccc2F)N3)cc1 (configuration not stated)	inconclusive: 21.2 µM [inhibitor, single point]	
